In paper PMC10721182:
No constants are given. Whether binding was seen depends on the method and setting. In cells and extracts the contact can be indirect.

Target: Recombinant Trichinella spiralis cathepsin L domains (rTsCatL2) (Trichinella spiralis)
Experiment: co-IP; Caco-2 cells incubated with 10 μg/mL rTsCatL2 for 30 min, washed, lysed in RIPA lysate with inhibitors; precipitated with 2 μg anti-rTsCatL2 IgG and Protein A/G PLUS agarose at 4°C, washed 5 times with RIPA; western blot with rabbit antibodies to the cell proteins; only the target purified

B1: occludin (protein, UniProt Q16625 1-522)
chain: MSSRPLESPPPYRPDEFKPNHYAPSNDIYGGEMHVRPMLSQPAYSFYPEDEILHFYKWTSPPGVIRILSMLIIVMCIAIFACVASTLAWDRGYGTSLLGGSVGYPYGGSGFGSYGSGYGYGYGYGYGYGGYTDPRAAKGFMLAMAAFCFIAALVIFVTSVIRSEMSRTRRYYLSVIIVSAILGIMVFIATIVYIMGVNPTAQSSGSLYGSQIYALCNQFYTPAATGLYVDQYLYHYCVVDPQEAIAIVLGFMIIVAFALIIFFAVKTRRKMDRYDKSNILWDKEHIYDEQPPNVEEWVKNVSAGTQDVPSPPSDYVERVDSPMAYSSNGKVNDKRFYPESSYKSTPVPEVVQELPLTSPVDDFRQPRYSSGGNFETPSKRAPAKGRAGRSKRTEQDHYETDYTTGGESCDELEEDWIREYPPITSDQQRQLYKRNFDTGLQEYKSLQSELDEINKELSRLDKELDDYREESEEYMAAADEYNRLKQVKGSADYKSKKNHCKQLKSKLSHIKKMVGDYDRQKT
B1 was tested, and the binding was “no binding (tested: 10 μg/mL rTsCatL2)”.
